Reference: patent US20210079070A1
No constants are given. Whether binding was seen depends on the method and setting. For part of these data: Binding calls can cover weak binding; strength is not graded here.

How the values were obtained:
[1] = target: HIV-1 Env CD4BS2 mutant K207E (HIV-1); assay: ELISA, panel 'N6 70-03 Binding to BG505 SOSIP.664', HIV-1 Env mutation: K207E
[2] = target: HIV-1 Env CD4BS2 mutant K207E (HIV-1); assay: binding to Env mutants (FIG. 6A)
[3] = target: BG505 SOSIP.664 Env ectodomain trimer (HIV-1); assay: ELISA, BG505 SOSIP.664 coated on the plate, HRP anti-human IgG, OD 450
[4] = target: BG505 SOSIP.664 Env ectodomain trimer (HIV-1); assay: ELISA, BG505 SOSIP.664 coated at 2 µg/ml

B1: N6 70-03 (antibody, V domains shown)
VH: RAHLVQSGTAMKKPGASVRVSCQTSGYTFTAHILFWFRQAPGRGLEWVGWIKPQYGAVNFGGGFRDRVTLTRQLSQDPDDPDWGIAYMDIRGLKPDDTAVYYCARDRSYGDSSWALDAWGQGTTVVVSA
VL: YIHVTQSPSSLSVSIGDRVTINCQTSQGVGSDLHWYQHKPGRAPKLLIHHTSSVEDGVPSRFSGSGFHTSFNLTISDLQADDIATYYCQVLQFFGRGSRLHIK
In the case of B1, the binding [1] is reported as “binds” and the binding [2] is reported as “binds”.

B2: VRC03 (antibody, V domains shown)
VH: QVQLVQSGAVIKTPGSSVKISCRASGYNFRDYSIHWVRLIPDKGFEWIGWIKPLWGAVSYARQLQGRVSMTRQLSQDPDDPDWGVAYMEFSGLTSADTAEYFCVRRGSCDYCGDFPWQYWGQGTWVVSSA
VL: EIVLTQSPGILSLSPGETATLFCKASQGGNAMTWYQKRRGQVPRLLIYDTSRRASGVPDRFVGSGSGTDFFLTINKLDREDFAVYYCQQFEFFGLGSELEVH
In the case of B2, the binding [3] is reported as “binds”.

B3: VRC03del (antibody, V domains shown)
VH: QVQLVQSGAVIKTPGSSVKISCRASGYNFRDYSIHWVRLIPDKGFEWIGWIKPLWGAVSYARQLQGRVSMTRQLGPGWGVAYMEFSGLTSADTAEYFCVRRGSCDYCGDFPWQYWGQGTWVVSSA
VL: EIVLTQSPGILSLSPGETATLFCKASQGGNAMTWYQKRRGQVPRLLIYDTSRRASGVPDRFVGSGSGTDFFLTINKLDREDFAVYYCQQFEFFGLGSELEVH
With B3 the binding [4] was “no binding” and the binding [3] was “no binding (tested: about 20 µg/ml)”.

B4: VRC06 (antibody, V domains shown)
VH: EVQLVESGPVMRKPGSSMKISCATSGYNFRDFSIHWVRFNRRYGFEWIGWIKPMWGAVNYARQLQGRVSMSRLFSQDLYYPDRGTAYLEFSGLTSADTADYFCVRRGSSCPHCGDFHFEHWGQGTAVVVSA
VL: EIVLTQSPATLSLSPGERATLSCRASQGGNSLNWYQKRRGQTPRLLIYDTSRRASDIPEKFVGSGSGTDFSLTITKVGPEDFAVYYCQQFEFFGLGTTLEIN
B4 was tested, and the binding [3] was “binds”.
